No constants are given. Whether binding was seen depends on the method and setting. Some results given as binding are weak or reduced against the parent protein; the word gives no strength.
Target: human IL1R1 (human) (UniProt P14778)
Assay: ELISA, IL1R1 protein (1 µM) coated, anti-Avi Tag detection, OD450

The chains behind the UniProt entries cited, without tags or fusion partners. Residues count along the entry.
UniProt P14778, residues 18-332: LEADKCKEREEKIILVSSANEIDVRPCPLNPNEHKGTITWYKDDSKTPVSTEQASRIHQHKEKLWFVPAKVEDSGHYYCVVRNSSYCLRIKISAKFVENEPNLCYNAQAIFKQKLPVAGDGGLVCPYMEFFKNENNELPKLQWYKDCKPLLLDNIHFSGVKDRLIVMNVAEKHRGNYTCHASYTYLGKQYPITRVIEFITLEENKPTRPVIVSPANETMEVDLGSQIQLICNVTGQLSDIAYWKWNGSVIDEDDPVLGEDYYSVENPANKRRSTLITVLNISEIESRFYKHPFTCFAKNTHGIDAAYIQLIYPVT

B1: G2-VHH (VHH)
VHH: QVQLVESGGGLVQPGGSLRLSCAASGFTMGDYAIGWFRQVPGKEREGLSYSTKNGIKAYADSVRDRFTISRENAKNTVYLQMNSLKPEDTAVYYCAASTRFGGLLVSRYDYWGQGTQVTVSS
  binding: binds

— patent EP4724480A2
